Measured values published in patent US20230090014A1.
These are yes or no findings as the source states them, for the method shown. Some binding calls cover weakened binding; strength is not graded here. One block for each binder: values may come before it.

By UniProt entry, the sequences of proteins in these tests, tags left out.
UniProt Q9NZQ7: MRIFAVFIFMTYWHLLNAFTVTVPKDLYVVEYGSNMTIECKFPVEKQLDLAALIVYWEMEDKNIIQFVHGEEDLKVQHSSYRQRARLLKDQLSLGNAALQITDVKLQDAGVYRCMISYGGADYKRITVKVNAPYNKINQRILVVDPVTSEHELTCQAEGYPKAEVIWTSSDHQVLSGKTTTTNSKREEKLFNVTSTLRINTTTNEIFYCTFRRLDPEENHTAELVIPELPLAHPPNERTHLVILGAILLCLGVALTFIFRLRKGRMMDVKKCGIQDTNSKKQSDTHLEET

Legend:
[1] = biological target: Cynomolgus CD47-His (cynomolgus); assay: ELISA, cynomolgus CD47-His coated
[2] = biological target: Cynomolgus CD47-His (cynomolgus); assay: ELISA on coated cynomolgus CD47-His, anti-human IgG HRP, OD450
[3] = biological target: PD-L1 molecules (screening ELISA of Example 12) (human) (UniProt Q9NZQ7); assay: ELISA of hybridoma supernatant, binding to PD-L1 molecules

- binding [1]: binds
- binding [2]: binds
B1: AB6.12-IgG4P (antibody, V domains shown)
VH: QMQLVQSGAEVKKTGSSVKVSCKASGFNIKDYYLHWVRQAPGQALEWMGWIDPDQGDTEYAQKFQDRVTITRDRSMSTAYMELSSLRSEDTAMYYCNAAYGSSSYPMDYWGQGTTVTVSS
VL: NIQMTQSPSAMSASVGDRVTITCKASQDIHRYLSWFQQKPGKVPKHLIYRANRLVSGVPSRFSGSGSGTEFTLTISSLQPEDFATYYCLQYDEFPYTFGGGTKVEIKR

- binding [3]: binds
B2: SHS009PL-18 (antibody, V domains shown)
VH: QVQLQQPGAELVRPGTSVNLSCKASGYSFTSNWMNWVKQRPGQGLEWIGMIHLYDSETKLNPNFQDKATLTVDKSSSIAYMQLSSPTSEDSAVYYCARSAGNYRFAYWGQGTLVTVSA
VL: SIVMTQTPKFLPVTAEDRVTITCKASQSVSNEVAWYQQKPGQSPKLLIYSASSRYTGVPDRFIGGGSATDFTFTISSVQVEDLAVYFCQQHYSSPLTFGAGTKLELK

- binding [3]: binds
B3: SHS009PL-15 (antibody, V domains shown)
VH: EVQLQESGPGLAKPSQTLSLTCSVTGYSITSDYWNWIRKFPGNKLEYMGYISYTGSTYYNPSLKRRVSITRDTSKNNYYLQLNSVTTEDTATYYCARYRDWPGYFDVWGAGTTVTVSS
VL: DVQITQSPSYLAASPGETITINCRASKSIRKFLAWYQEKPGKTNKLLIYSGSTLQSGIPSRFSGSGSGTDFTLTISTLEPEDFAVYYCQHYNEYPFTFGGGTKLEIK

- binding [3]: binds
B4: SHS009PL-16 (antibody, V domains shown)
VH: QVQLQQSGAELARPGASVKMSCKASGYTFTRNTMHWIKQRPGQGLEWIGFIDPHNTYTRYNQKFKDRATLTADKSSSTAYMQLSSLSSEDSAVYYCARWPMDYWGQGTSVTVSS
VL: DIVMTQFPSSLAVTAGEKVTMRCKSSQSLSWSENQNNYLSWYQQKQGQPPKLLIYGASIRESWVPDRFTGSGSGTDFTLTISNVHAEDLGVYFCQHNHGSFLPYTFGGGTKLEIK

- binding [1]: binds
- binding [2]: binds
B5: Hu58A-14-PE (antibody, IgG4, V domains shown)
VH: EVQLLESGGGLVQPGGSLRLSCAASGFIFSRFGMAWVRQTPDKRLEWVATISSGGSYTYYPDSVKGRLTISRDNAKTTLYLQMRSLKSEDTAMYYCARQGLLDYLYALDYWGQGTAVTVSS
VL: DIQMTQSPSSVSASIGDRVTITCKASQDINSFLAWFQQKPGKSPRPLIYRAYRLVDGVPSRFSGVGSGQDYSLTISSLDYEDLGIYYCQQYVEFPPTFGAGTMLELK

- binding [1]: binds
- binding [2]: binds
B6: Hu34-39-PE (antibody, IgG4, V domains shown)
VH: QVQLQESGPGLVKPSQTLSLTCKASGYTFTNYWITWVKQRPGQGLEWIGDITPGRGETNYNQKFKGRVTLTVDISASTAYMELSSLRSEDTAVYYCSRWGLRRGDYWGQGTSVTVSS
VL: EIVLTQSPGTLSLSPGERATLSCRASSSVSSSYLNWYQQKSGASPKLWIYSTSNLASGVPGRFSGSGSGTSYSLTISSVEAEDAATYYCQQYSGYPLTFGAGTKLEVK

- binding [1]: binds
- binding [2]: binds
B7: Hu26T-31-PE (antibody, IgG4, V domains shown)
VH: QVQLVQSGAEVKKPGASVKVSCKASGYTFTDYYMNWVRQAPGQGLEWIGRIYPGSGLTYYNAKFKGRATVTADKSTSTVYMELSSLRSEDTAVYYCARTSYGSSFPHVWGQGTTVTVSS
VL: DIQMTQSPSSLSASVGDRVTITCKSSQSLLNVNDQKNYLAWYQQKPGKAPKLLIYFASTRESGVPSRFSGSGSGTDFTLTISSLQPEDFATYYCQQHYSTPLTFGQGTKLEIK
